These are yes or no findings as the source states them, for the method shown. In cells and extracts the contact can be indirect. Some entries that bind do so weakly or less than the wild type.
Molecular target: mouse Wnt3a, His-tagged (mouse) (UniProt P27467)
Assay: co-IP; as a2; the synthetic peptide RH3 added to the culture media of the transfected cells as competitor; only the binder purified

By UniProt entry, the sequences of proteins in these tests, tags left out. Residues count along the entry.
UniProt P27467, residues 19-352: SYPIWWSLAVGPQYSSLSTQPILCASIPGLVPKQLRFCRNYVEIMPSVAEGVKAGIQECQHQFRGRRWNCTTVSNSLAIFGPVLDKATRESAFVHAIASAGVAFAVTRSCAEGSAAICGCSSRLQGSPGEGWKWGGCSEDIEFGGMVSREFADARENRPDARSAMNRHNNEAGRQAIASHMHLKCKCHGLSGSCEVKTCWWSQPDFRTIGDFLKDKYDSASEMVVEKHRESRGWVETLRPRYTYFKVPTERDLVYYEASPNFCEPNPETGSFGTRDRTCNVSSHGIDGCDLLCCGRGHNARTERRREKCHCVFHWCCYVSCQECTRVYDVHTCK

- binding: binds
Binder: AWGRFLHTNCHPFLA [synthetic peptide RH3 from V3Nter CRD]
